The campaign covered roughly 140,000 compounds. About 4,300 (3.1%) were called active. This list was built around the results that the source calls inconclusive (neither active nor inactive); the mix of calls is not that of the screen.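 How the source made its calls: active means readout at or below -70, meaning at least 70% loss of cells showing the perinucleolar compartment, a nuclear body marking cancer cells; inconclusive means readout between -30 and a set limit; inactive means the rest.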
Assay: High Content Assay for Compounds that inhibit the Assembly of the Perinucleolar Compartment;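 further: plate controls were DMSO wells for no effect and camptothecin positive control wells for full effect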
Details: PC3M PTB-GFP, PNC prevalence imaging, 16 h; at 10 µM; active compounds read low
Outline: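 Compounds are pinned in duplicate onto adhered PC3M cells stably expressing GFP-tagged PTB and incubated 16 h at 37 C. Cells are then fixed, nuclei stained with Hoechst, and PNC-positive cells counted.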
With CCCCCCCCNC(=O)/C(C#N)=C/c1ccc2c(c1)OCCO2 the activity change (PNC), negative = inhibition was inconclusive: -54.6%.
With Cc1cn(C(=O)CN2C(=O)c3ccccc3C2=O)c(C)n1 the activity change (PNC), negative = inhibition was inconclusive: -55.5%.
With COc1ccc(C(=O)/C=C/c2cn(CC(O)CN3CCOCC3)c3ccccc23)cc1 (stereo not given) the activity change (PNC), negative = inhibition was inactive: -25.2%.
For O=C(CSc1nnc(-c2cccnc2)n1-c1ccccc1)Nc1ccccc1, the activity change (PNC), negative = inhibition was active: -100%.
For N#Cc1c(N2CCCCC2)nc(N2CCCCC2)c2c1CCN(Cc1ccccc1)C2, the activity change (PNC), negative = inhibition was inconclusive: -49.3%.
In the case of O=C(Oc1ccccc1Cl)c1ccc(-n2cncn2)nc1, the activity change (PNC), negative = inhibition is reported as inconclusive: -33.7%.
For COc1ccc2c(c1)C(NC(=O)C(F)(F)F)CC2=O (stereo not given), the activity change (PNC), negative = inhibition was inconclusive: -64.1%.
With CCOC(=O)CCCOC(=O)c1ccc(S(=O)(=O)N(C)C)cc1 the activity change (PNC), negative = inhibition was active: -100%.
With CC(C)CC1C(C#N)=C(N)Oc2n[nH]c(-c3cccs3)c21 (stereo not given) the activity change (PNC), negative = inhibition was inactive: 10.2%.
With Cc1ccc(S(=O)(=O)N(C)Cc2ccc(C(=O)N/N=C3\CC(=O)CC(C)(C)C3)cc2)cc1 the activity change (PNC), negative = inhibition was inconclusive: -35.2%.
For CCc1nnc(NC(=O)CSc2ncc(-c3ccccc3)[nH]2)s1, the activity change (PNC), negative = inhibition was inconclusive: -41.3%.
With CC1CCCN(CCOc2ccc(Br)cc2)C1 (stereo not given) the activity change (PNC), negative = inhibition was inactive: -4.44%.
With Cc1cccc(NC(=S)N2CCN(Cc3ccc4c(c3)OCO4)CC2)c1C the activity change (PNC), negative = inhibition was inconclusive: -33.5%.
In the case of Cc1nn(-c2ccccc2)c2sc(C(=O)OC3CCOC3=O)cc12 (stereo not given), the activity change (PNC), negative = inhibition is reported as inconclusive: -45.1%.
For O=C(NCCc1ccccc1)c1ccncc1, the activity change (PNC), negative = inhibition was inactive: -28.7%.
For Cc1cc(F)ccc1NCC(=O)Nc1ccccc1Br, the activity change (PNC), negative = inhibition was inactive: 2.74%.
For CC1CCN(c2nc(-c3ccccc3O)nc3ccccc23)CC1, the activity change (PNC), negative = inhibition was inactive: -9.05%.
With COc1cccc(/C=N/NC(=O)CN(C2=NS(=O)(=O)c3ccccc32)c2ccccc2)c1 the activity change (PNC), negative = inhibition was inactive: -14.2%.
With CCCN(CCC)S(=O)(=O)c1ccc(C(=O)Nc2nnc(CSC)o2)cc1 the activity change (PNC), negative = inhibition was inactive: 6.66%.
With CC1(C)CC(=NOC(=O)c2ccccc2)CC(C)(C)N1O the activity change (PNC), negative = inhibition was inactive: -27.5%.
With CC(C)(C)NC(=O)C(c1ccco1)N(Cc1ccc(F)cc1)C(=O)c1snc(C(N)=O)c1N (stereo not given) the activity change (PNC), negative = inhibition was inactive: -9.32%.
For CCOC(=O)N1CCN(C(=O)C(NS(=O)(=O)c2cccc3nsnc23)c2ccccc2)CC1 (stereo not given), the activity change (PNC), negative = inhibition was inconclusive: -54.7%.
With CN(C(=O)C12CC3CC(CC(C3)C1)C2)C1CCS(=O)(=O)C1 (stereo not given) the activity change (PNC), negative = inhibition was inconclusive: -31.6%.
With Cn1c(SCC(=O)N2CCN(c3cccc(Cl)c3)CC2)nnc1-c1ccncc1 the activity change (PNC), negative = inhibition was inconclusive: -47.9%.
In the case of Cc1occc1-c1nnc(SCC(=O)Nc2nccs2)n1Cc1ccco1, the activity change (PNC), negative = inhibition is reported as inconclusive: -39.7%.
